The assay has as its target T1, WD repeat domain 4 (WDR4) (human (endogenous in UM-UC-3 and 5637)) (UniProt P57081).
T1 sequence: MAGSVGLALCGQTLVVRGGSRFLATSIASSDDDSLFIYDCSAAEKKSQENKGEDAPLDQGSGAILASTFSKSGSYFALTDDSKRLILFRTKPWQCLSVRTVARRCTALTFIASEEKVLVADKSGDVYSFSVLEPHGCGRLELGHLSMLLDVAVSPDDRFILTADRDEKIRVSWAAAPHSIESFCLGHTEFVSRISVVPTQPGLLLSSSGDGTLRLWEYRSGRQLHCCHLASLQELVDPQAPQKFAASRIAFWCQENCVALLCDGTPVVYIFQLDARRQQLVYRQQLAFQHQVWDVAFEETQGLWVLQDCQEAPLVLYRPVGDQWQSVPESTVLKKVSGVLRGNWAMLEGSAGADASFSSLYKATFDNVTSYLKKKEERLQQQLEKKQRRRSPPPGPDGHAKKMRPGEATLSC
Put plainly: affinity purification with mass spectrometry; endogenous WDR4 immunoprecipitated with an anti-WDR4 antibody from UM-UC-3 and 5637 cell lysates (IgG as control, Protein A/G magnetic beads); eluted proteins identified by LC-MS/MS.

Protein sequences, listed by entry. Tags and fused reporters are not part of them.
UniProt Q9UHI6: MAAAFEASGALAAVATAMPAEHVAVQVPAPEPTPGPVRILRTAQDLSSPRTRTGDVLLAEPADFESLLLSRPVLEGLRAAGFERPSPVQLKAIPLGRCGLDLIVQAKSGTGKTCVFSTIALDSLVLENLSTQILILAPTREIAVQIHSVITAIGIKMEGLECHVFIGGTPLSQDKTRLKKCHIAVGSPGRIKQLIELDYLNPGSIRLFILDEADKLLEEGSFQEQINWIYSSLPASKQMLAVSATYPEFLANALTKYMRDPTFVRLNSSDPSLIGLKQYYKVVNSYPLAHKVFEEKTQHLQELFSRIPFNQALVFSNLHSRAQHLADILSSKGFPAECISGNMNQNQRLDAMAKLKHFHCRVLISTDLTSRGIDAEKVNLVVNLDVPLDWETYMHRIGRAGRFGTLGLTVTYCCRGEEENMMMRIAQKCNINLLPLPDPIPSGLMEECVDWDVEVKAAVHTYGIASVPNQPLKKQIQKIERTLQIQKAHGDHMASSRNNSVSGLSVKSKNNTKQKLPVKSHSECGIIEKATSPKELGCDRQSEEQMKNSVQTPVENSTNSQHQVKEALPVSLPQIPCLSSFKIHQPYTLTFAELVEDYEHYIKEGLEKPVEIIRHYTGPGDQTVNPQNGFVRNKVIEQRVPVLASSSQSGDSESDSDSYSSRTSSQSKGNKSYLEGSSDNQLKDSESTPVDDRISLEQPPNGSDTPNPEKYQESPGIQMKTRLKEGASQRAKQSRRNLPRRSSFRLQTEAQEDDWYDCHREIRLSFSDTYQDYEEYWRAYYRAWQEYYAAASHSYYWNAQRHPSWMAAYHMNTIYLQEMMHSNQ

Results are given in words; binding and its absence hold for the method and conditions named. In cells and extracts the contact can be indirect. A yes stands for co-enrichment or nearness to the bait. Other partners may have been found.

For the substance “DEAD-box helicase 20 (DDX20) (from UniProt Q9UHI6 1-824)”, the binding entry was “binds”.

Source of the values: article PMC10545698.
